{
  "source": "patent US4696920A",
  "about": "“Certain 2-substituted 1,3-propylidenediphosphonate derivatives, pharmaceutical compositions containing them and their use as antihypertensive agents” (priority 1984, dated 1987)",
  "note": "At least one read-out could not be matched to a standard name with certainty.",
  "data": [
    {"tested_on": "blood pressure in hypertensive rats", "assay": "Oral hypotensive activity in hypertensive rats (tail cuff)", "assay_type": "in vivo, rat (spontaneously hypertensive", "settings": "conscious SHR, 2 hours post dose, dose not given", "description": "Some selected compounds were given orally to conscious SHR rats and blood pressure was monitored using the tail cuff method. A marked and sustained hypotensive activity was measured in all treated rats. Results are given 2 hours post dose (Table 5). These studies illustrate the obvious potential use of orally administered 1,3-diphosphonates for the clinical treatment of hypertension in man.", "units": {"Decrease in blood pressure (% pretest value)": "% pretest value"}, "values": [
      {"smiles": "C=CCCOP(=O)(CC(CCOc1ccccc1)CP(=O)(OCCC=C)OCCC=C)OCCC=C", "note": "[Compound 110]", "Decrease in blood pressure (% pretest value)": 44},
      {"smiles": "CCCCCOP(=O)(CC(CCCc1ccccc1)CP(=O)(OCCCCC)OCCCCC)OCCCCC", "note": "[Compound 112, Tetrapentyl 2-(3-phenylpropyl)-1,3-propylidenediphosphonate]", "Decrease in blood pressure (% pretest value)": 18},
      {"smiles": "CCCCCCOP(=O)(CC(CCCc1ccccc1)CP(=O)(OCCCCCC)OCCCCCC)OCCCCCC", "note": "[Compound 113, Tetrahexyl 2-(3-phenylpropyl)-1,3-propylidenediphosphonate]", "Decrease in blood pressure (% pretest value)": 19},
      {"smiles": "COc1ccc([C@@H]2Sc3ccccc3N(CCN(C)C)C(=O)[C@@H]2OC(C)=O)cc1", "note": "[Diltiazem]", "Decrease in blood pressure (% pretest value)": 38},
      {"smiles": "Fc1ccc(C(c2ccc(F)cc2)N2CCN(C/C=C/c3ccccc3)CC2)cc1", "note": "[Flunarizine, reference compound]", "Decrease in blood pressure (% pretest value)": 23}
    ]}
  ]
}
